# Results reported in the supplement of paper PMC12067093, “Discovery and optimisation of a covalent ligand for TRIM25 and its application to targeted protein ubiquitination” (Chemical Science, 2025).
# By UniProt entry, the sequences of proteins in these tests, tags left out. Where a name states a change or a piece, a line headed by the entry shows the natural chain unless it says otherwise.
# UniProt P08575: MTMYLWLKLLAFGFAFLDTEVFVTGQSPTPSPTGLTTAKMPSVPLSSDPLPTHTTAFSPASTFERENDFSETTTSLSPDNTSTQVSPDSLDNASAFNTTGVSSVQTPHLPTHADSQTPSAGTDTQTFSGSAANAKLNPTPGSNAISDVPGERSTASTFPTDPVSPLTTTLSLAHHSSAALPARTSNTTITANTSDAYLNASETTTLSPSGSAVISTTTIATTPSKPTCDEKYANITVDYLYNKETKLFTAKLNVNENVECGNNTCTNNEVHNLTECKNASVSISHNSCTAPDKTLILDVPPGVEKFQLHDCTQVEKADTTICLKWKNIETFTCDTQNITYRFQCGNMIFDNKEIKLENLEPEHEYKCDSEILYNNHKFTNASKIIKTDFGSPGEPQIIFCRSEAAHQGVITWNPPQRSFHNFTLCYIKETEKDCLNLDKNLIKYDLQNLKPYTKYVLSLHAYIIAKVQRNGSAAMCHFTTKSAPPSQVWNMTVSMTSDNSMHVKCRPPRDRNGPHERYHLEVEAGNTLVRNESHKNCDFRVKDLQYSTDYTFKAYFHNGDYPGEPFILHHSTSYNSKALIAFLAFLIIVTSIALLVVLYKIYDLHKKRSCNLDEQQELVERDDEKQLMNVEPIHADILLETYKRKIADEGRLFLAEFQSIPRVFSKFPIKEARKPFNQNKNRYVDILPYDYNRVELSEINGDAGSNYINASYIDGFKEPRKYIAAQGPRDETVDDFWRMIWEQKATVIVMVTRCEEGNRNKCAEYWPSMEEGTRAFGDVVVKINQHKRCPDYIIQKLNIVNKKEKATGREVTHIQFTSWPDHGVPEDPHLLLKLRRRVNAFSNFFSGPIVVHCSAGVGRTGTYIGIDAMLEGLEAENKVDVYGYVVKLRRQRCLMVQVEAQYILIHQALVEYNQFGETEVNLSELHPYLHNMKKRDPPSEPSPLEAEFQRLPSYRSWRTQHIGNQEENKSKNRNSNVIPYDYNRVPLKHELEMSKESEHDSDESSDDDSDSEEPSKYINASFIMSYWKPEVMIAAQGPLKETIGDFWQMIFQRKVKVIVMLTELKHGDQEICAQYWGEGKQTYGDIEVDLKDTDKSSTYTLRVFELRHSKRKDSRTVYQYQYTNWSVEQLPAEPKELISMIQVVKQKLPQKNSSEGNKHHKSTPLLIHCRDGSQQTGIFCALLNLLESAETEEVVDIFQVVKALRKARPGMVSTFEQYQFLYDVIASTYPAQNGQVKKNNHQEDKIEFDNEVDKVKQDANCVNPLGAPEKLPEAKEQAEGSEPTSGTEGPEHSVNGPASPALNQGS
# UniProt P62191: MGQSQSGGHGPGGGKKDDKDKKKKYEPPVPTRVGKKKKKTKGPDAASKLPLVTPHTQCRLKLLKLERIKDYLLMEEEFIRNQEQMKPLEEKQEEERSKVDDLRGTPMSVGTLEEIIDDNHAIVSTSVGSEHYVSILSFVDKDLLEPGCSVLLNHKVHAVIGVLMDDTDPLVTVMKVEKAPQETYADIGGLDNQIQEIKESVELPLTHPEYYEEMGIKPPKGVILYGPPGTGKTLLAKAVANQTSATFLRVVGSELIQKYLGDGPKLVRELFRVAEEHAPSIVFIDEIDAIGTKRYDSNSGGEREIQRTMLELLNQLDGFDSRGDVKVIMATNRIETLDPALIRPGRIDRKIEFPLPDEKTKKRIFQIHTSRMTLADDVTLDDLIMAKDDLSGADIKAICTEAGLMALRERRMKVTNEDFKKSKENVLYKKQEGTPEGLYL
# UniProt P43378: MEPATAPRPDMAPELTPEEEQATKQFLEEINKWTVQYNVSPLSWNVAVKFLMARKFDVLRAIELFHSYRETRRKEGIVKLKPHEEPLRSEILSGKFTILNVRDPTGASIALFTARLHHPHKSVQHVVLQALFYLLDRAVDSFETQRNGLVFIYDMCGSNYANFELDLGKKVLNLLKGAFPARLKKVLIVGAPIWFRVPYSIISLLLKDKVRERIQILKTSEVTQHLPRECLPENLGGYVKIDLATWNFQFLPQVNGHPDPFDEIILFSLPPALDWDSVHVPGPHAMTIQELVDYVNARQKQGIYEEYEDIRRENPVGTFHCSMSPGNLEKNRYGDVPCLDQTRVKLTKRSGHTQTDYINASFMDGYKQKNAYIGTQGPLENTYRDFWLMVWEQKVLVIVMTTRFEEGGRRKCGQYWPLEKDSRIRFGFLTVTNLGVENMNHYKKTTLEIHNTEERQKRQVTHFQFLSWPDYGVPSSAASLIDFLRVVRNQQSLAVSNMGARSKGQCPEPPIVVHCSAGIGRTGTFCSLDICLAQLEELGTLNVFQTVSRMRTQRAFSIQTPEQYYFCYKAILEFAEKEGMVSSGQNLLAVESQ
# UniProt P35998: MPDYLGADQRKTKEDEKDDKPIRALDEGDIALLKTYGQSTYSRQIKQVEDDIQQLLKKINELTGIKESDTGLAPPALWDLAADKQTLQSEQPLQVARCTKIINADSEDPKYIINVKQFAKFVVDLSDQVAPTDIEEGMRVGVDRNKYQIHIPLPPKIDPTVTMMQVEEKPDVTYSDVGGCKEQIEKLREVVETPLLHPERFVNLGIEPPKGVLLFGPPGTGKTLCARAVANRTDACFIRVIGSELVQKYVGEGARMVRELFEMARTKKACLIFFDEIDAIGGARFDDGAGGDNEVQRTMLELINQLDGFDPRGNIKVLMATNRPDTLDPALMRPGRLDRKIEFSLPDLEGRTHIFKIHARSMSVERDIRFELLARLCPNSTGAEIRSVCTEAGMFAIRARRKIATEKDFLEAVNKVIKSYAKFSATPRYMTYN
# UniProt O00232: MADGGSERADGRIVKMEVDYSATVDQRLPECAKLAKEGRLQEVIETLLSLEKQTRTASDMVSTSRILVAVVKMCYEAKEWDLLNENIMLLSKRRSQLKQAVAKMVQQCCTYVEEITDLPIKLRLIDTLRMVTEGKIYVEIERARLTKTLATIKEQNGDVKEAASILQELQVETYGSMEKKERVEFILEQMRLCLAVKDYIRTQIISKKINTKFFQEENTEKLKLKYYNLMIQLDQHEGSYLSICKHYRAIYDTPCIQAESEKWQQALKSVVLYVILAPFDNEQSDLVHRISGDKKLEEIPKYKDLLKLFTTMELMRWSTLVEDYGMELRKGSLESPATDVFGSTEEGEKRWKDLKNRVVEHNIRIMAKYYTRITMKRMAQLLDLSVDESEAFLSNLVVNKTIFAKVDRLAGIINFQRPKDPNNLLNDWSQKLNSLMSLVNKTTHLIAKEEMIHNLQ
# UniProt Q86Y79: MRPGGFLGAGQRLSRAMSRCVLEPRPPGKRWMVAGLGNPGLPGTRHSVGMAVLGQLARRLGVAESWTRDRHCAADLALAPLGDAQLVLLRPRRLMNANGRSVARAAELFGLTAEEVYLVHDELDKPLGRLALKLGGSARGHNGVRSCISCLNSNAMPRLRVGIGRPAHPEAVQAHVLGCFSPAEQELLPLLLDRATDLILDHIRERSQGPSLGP
# UniProt Q14997: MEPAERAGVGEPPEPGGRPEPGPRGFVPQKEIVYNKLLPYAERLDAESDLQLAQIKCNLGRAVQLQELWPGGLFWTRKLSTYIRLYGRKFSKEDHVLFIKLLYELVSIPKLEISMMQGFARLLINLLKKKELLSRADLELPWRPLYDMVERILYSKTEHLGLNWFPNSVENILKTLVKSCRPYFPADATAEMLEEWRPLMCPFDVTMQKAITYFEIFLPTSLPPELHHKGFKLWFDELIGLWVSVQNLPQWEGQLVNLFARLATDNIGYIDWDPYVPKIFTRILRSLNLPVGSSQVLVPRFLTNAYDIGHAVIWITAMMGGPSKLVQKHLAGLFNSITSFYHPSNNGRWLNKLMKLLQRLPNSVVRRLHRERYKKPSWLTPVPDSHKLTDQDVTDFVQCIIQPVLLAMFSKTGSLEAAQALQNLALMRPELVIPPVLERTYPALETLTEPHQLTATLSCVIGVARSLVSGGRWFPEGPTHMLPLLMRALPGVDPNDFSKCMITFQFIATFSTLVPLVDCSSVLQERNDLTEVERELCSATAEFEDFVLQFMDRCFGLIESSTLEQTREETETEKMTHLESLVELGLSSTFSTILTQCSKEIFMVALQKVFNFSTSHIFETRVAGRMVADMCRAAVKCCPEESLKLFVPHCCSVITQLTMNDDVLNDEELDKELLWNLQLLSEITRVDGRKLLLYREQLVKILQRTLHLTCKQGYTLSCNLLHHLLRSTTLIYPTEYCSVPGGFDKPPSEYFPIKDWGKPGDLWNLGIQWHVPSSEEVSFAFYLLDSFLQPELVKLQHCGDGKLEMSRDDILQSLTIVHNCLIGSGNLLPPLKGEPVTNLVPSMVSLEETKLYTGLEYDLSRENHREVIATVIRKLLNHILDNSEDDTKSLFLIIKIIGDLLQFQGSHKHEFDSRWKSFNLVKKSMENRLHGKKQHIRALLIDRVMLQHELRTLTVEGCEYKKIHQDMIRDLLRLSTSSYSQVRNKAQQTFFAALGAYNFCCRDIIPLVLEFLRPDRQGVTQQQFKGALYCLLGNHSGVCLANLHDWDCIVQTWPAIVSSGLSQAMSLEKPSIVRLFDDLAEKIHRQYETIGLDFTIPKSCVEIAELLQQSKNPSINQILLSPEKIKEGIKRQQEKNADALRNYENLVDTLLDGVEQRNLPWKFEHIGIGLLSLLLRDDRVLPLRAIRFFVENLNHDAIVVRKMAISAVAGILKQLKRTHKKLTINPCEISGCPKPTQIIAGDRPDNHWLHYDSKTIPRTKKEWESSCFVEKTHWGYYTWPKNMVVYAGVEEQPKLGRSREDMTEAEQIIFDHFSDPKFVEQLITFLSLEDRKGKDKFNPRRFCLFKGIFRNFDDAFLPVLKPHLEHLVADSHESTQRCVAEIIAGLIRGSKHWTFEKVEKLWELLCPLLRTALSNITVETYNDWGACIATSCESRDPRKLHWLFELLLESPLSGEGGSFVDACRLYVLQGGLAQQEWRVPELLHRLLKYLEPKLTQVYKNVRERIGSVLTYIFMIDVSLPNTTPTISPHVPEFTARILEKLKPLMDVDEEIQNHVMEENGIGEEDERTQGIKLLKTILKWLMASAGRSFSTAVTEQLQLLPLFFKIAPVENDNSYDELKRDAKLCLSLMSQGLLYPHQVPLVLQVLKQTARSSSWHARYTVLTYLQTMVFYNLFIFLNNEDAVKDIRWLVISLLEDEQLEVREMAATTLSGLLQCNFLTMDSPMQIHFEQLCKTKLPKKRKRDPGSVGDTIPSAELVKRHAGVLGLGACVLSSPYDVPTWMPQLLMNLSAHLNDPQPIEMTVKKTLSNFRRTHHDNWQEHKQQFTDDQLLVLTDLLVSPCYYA
# UniProt Q96BW5: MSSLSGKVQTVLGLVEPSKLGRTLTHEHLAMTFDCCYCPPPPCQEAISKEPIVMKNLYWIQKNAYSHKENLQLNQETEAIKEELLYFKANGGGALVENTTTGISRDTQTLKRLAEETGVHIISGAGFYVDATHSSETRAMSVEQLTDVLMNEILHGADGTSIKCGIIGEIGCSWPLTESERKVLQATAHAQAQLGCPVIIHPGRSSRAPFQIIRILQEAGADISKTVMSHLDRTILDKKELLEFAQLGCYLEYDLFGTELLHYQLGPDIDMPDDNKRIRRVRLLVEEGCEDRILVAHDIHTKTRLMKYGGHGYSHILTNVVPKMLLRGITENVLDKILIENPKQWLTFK
# UniProt Q9H939: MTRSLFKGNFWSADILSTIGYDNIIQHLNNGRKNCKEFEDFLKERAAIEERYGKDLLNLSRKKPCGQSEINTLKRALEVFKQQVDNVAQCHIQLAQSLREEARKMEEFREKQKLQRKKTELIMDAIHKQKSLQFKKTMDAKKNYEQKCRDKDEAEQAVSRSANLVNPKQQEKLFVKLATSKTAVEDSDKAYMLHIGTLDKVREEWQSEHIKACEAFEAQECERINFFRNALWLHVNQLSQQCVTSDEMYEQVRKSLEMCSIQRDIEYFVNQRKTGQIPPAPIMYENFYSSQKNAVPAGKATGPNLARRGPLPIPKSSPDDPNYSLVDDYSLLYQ
# UniProt Q15185: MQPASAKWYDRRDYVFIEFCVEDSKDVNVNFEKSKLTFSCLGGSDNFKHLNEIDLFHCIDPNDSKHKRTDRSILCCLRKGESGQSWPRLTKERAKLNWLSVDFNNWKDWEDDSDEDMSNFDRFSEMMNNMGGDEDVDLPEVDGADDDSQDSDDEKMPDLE
# UniProt P17980, whole entry, looked up: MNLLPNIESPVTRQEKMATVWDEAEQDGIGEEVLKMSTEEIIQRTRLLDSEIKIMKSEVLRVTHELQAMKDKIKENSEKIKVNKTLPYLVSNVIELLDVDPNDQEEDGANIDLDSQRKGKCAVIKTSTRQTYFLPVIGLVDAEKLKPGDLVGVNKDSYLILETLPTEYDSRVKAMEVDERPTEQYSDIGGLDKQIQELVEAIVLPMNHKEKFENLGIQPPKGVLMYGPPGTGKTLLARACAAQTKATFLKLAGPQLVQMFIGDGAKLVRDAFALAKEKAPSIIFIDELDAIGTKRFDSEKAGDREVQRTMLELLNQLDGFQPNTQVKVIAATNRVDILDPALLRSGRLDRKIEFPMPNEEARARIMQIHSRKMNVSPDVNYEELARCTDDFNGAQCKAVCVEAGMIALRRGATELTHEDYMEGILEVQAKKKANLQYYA
# This is one part of the list.
# Compound: CC1Cc2ccccc2N1C(=O)C1CCCN(C1)C(=O)CCl (mixture of isomers) [TRIM25 ligand 11 (diastereomer mixture)]
# Assay: probe-labelled cysteine peptide fold change vs DMSO (competition) (log2 fold change); higher = less target engagement (more negative = stronger competition)
# Conditions: 50 µM; THP-1; incubation time: 4 h
# 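Further: competitive chemoproteomic profiling in live THP-1 cells with an iodoacetamide desthiobiotin (IA-DTB) probe, comparing probe-labelled peptide intensities in compound-treated cells against DMSO-treated controls.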
row,Target,probe-labelled cysteine peptide fold change
1,PTPRC_P08575_853_VNAFSNFFSGPIVVHCSAGVGR (UniProt P08575),-0.0548
2,PSMC1_P62191_399_AICTEAGLMALR (UniProt P62191),0.102
3,PTPN9_P43378_338_YGDVPCLDQTR (UniProt P43378),-0.155
4,PTPRC_P08575_1261_QDANCVNPLGAPEKLPEAK (UniProt P08575),-0.245
5,PSMC2_P35998_389_SVCTEAGMFAIR (UniProt P35998),-0.0262
6,PSMD12_O00232_109_MVQQCCTYVEEITDLPIK (UniProt O00232),-0.00902
7,PTPRC_P08575_400_TDFGSPGEPQIIFCR (UniProt P08575),0.272
8,PTRH1_Q86Y79_72_HCAADLALAPLGDAQLVLLRPR (UniProt Q86Y79),-0.126
9,PSME4_Q14997_798_LQHCGDGK (UniProt Q14997),0.154
10,PUF60_Q9UHX1_129_ALAIMCR (UniProt Q9UHX1),0.248
11,PTPRF_P10586_54_VPEDQTGLSGGVASFVCQATGEPKPR (UniProt P10586),-0.14
12,PTER_Q96BW5_196_VLQATAHAQAQLGCPVIIHPGR (UniProt Q96BW5),0.203
13,PSTPIP2_Q9H939_221_ACEAFEAQECER (UniProt Q9H939),-0.071
14,PTGES3_Q15185_40_LTFSCLGGSDNFK (UniProt Q15185),0.0777
15,PTCD1_O75127_695_EADDGCALGGR (UniProt O75127),-0.18
16,PSMD6_Q15008_188_VYQGLYCVAIR (UniProt Q15008),0.231
17,PSMD1_Q99460_703_QGALIASALIMIQQTEITCPK (UniProt Q99460),0.118
18,PSME4_Q14997_820_DDILQSLTIVHNCLIGSGNLLPPLK (UniProt Q14997),-0.00648
19,PSMC3_P17980_240_ACAAQTK (UniProt P17980),-0.0365
20,PSMA7_O14818_63+70_ICALDDNVCMAFAGLTADAR (UniProt O14818),0.151
21,PSMD1_Q99460_378_NSVCHTATVIANSFMHCGTTSDQFLRDNLEWLAR (UniProt Q99460),-0.0957
22,PTGES3_Q15185_20_DYVFIEFCVEDSK (UniProt Q15185),0.0272

# A few values from the results shown.
# In probe-labelled cysteine peptide fold change, PSMC1_P62191_399_AICTEAGLMALR (UniProt P62191) has the entry 0.102
# In probe-labelled cysteine peptide fold change, PTPRC_P08575_400_TDFGSPGEPQIIFCR (UniProt P08575) has the entry 0.272
